Data as given in PubChem BioAssay AID504791 (Drosophila RNAi Screening Center, 2011)

- Purpose: 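Genes whose knock-down strengthens or weakens small-RNA reporter silencing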 (primary screen)
- System: Drosophila S2-derived reporter cells
- Knock-down reagent: long dsRNA against Drosophila genes, about 150-250 ng dsRNA per well (siRNA assay); about 80-120 ng (miRNA assay)
- Duration: about 5 days (siRNA assay); about 4 days (miRNA assay)
- Conditions: copper sulfate induction of reporters: 25 µM (siRNA assay); 200 mM stated (miRNA assay), 1-2 days before reading
- Read-out: 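Per-well ratio of Renilla over firefly light, expressed relative to that plate's average ratio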
- Units: stable assay Renilla, run 1 in luminescence; stable assay firefly, run 1 in luminescence
- Hit rule: 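First-pass picks had plate-scaled ratios over 1.5 for the siRNA assay, over 1.6 for the miRNA assay, or under 0.6; two distinct dsRNAs had to score alike on retest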
In all, the deposit lists about 23,000 reagents; below is a random part of those with a known target gene and a result. Over the whole deposit, 199 (0.86%) got an active call. 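Plate-scaled ratios behind the calls are not deposited; printed light signals are raw; many rows marked increased or decreased are still called inactive.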 Unmarked entries are inactive. The record does not give: the direction of the score.

pinta [SID104194490] | stable assay Renilla, run 1: 8347; stable assay firefly, run 1: 3.36e5
CG43338 [SID104201631] | stable assay Renilla, run 1: 9172; stable assay firefly, run 1: 4.34e5
IntS3 [SID104201007] | stable assay Renilla, run 1: 7107; stable assay firefly, run 1: 5.00e5
Tsc1 [SID104196682] | stable assay Renilla, run 1: 10247; stable assay firefly, run 1: 3.33e5
Tsp42Ea [SID104184774] | stable assay Renilla, run 1: 6452; stable assay firefly, run 1: 4.98e5
Tsp42Ea [SID104186584] | stable assay Renilla, run 1: 6564; stable assay firefly, run 1: 4.57e5
RpL18 [SID104190808] | stable siRNA reporter change: reporter ratio raised past the hit cutoff; stable assay Renilla, run 1: 5867; stable assay firefly, run 1: 2.82e5
RpL18 [SID104201824] | stable assay Renilla, run 1: 9540; stable assay firefly, run 1: 4.08e5
GstS1 [SID104187228] | stable assay Renilla, run 1: 11256; stable assay firefly, run 1: 4.76e5
CG13875 [SID104188137] | stable assay Renilla, run 1: 6284; stable assay firefly, run 1: 3.67e5
fon [SID104182299] | stable assay Renilla, run 1: 73488; stable assay firefly, run 1: 1.16e6
Snp [SID104184316] | stable assay Renilla, run 1: 6020; stable assay firefly, run 1: 3.05e5
Snp [SID104201255] | stable assay Renilla, run 1: 10774; stable assay firefly, run 1: 5.89e5
CG9328 [SID104182995] | miRNA reporter change: reporter ratio lowered past the hit cutoff; stable assay Renilla, run 1: 7499; stable assay firefly, run 1: 1.36e6
ara [SID104191114] | stable assay Renilla, run 1: 4959; stable assay firefly, run 1: 2.97e5
ara [SID104202341] | stable assay Renilla, run 1: 5047; stable assay firefly, run 1: 3.93e5
CG11309 [SID104191442] | stable assay Renilla, run 1: 12081; stable assay firefly, run 1: 3.77e5
Or42b [SID104184705] | stable assay Renilla, run 1: 7399; stable assay firefly, run 1: 4.32e5
mthl12 [SID104192756] | stable assay Renilla, run 1: 6700; stable assay firefly, run 1: 5.62e5

2 successive reagents from above:
Snp [SID104184316] | stable assay Renilla, run 1: 6020; stable assay firefly, run 1: 3.05e5
Snp [SID104201255] | stable assay Renilla, run 1: 10774; stable assay firefly, run 1: 5.89e5
